Results taken from PMC12538437, “Branched DNA processing by a thermostable CAS-Cas4 from Thermococcus onnurineus: Expanding biochemical landscape of nuclease activity”.
Results are given in words; binding and its absence hold for the method and conditions named.

Target: TON_0321, CAS-Cas4 protein from Thermococcus onnurineus NA1 (Thermococcus onnurineus NA1) (UniProt B6YTB9)
Experiment: SEC; HiLoad 16/60 S200 column, 25 mM Tris-HCl pH 8.0, 10% glycerol, 500 mM NaCl; calibrated with gel filtration markers; several protein concentrations; both purified

binding: no binding
B1: TON_0321, CAS-Cas4 protein from Thermococcus onnurineus NA1 (enzyme, UniProt B6YTB9 1-222)
chain: MGYPEEIEEFNERIRNAIVGKTPERKIWVTSLSYCLRKAALSIYLGTFKYERTGEMLVGSVLHEWLGNALSSEDIEFEVTVEYPLEDGWKLVGRVDAVKGNYPLEFKFKGFNGEDESSPKTPDEMNEPPKLAKEQLNAYLNMMDKKLGYIYVFDRNGLSFKPFPVERDKKAFQRILRRAKVVIEGVRQLESGSFPEWIKPRYGKRECGGCLFRPICEAVESK
